Results taken from publication PMC6561018, “Structure and Properties of a Natural Competence-Associated Pilin Suggest a Unique Pilus Tip-Associated DNA Receptor” (mBio, 2019).
These are yes or no findings as the source states them, for the method shown.

Key:
[1] = biological target: T1, ComZ (residues 31 to 554), Thermus thermophilus HB27 (Thermus thermophilus HB27) (UniProt Q8KPZ1); test: SEC; SEC during purification of ComZ alone; HiLoad 16/600 Superdex 75 PG, 25 mM Tris-HCl pH 8.0, 200 mM NaCl, 5% glycerol, 25°C; both purified
T1 sequence: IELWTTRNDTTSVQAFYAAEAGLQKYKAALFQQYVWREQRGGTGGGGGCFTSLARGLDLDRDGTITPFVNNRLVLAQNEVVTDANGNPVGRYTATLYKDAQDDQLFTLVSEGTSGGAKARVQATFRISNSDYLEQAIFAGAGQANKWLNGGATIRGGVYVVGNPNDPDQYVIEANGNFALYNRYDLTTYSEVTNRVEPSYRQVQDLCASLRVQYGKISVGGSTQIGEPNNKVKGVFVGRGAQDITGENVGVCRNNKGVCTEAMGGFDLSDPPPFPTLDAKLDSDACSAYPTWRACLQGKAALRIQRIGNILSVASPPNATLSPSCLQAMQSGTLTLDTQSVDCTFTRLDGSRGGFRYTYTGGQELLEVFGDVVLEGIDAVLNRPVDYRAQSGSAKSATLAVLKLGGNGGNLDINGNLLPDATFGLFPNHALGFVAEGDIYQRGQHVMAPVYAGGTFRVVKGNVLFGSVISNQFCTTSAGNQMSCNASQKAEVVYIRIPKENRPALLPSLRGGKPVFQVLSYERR

[2] = biological target: T2, PilA3 soluble domain (residues 33 to 233), Thermus thermophilus HB27 (Thermus thermophilus HB27) (UniProt Q72JC2); test: pull-down; affinity tag assay on a StrepTrap HP column holding the Strep-tag II pilin; 3 mg ComZ and 2 mg pilin incubated in 25 mM Tris-HCl pH 8.0, 200 mM NaCl, 5% glycerol at 4°C for about 30 min; eluted proteins examined by SDS-PAGE; both purified
T2 sequence: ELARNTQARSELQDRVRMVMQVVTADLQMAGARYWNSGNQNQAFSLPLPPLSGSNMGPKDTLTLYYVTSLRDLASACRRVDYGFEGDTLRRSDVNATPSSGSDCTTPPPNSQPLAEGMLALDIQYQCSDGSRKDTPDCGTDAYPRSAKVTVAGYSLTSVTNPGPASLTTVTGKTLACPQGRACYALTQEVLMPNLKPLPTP

[3] = biological target: T1, ComZ (residues 31 to 554), Thermus thermophilus HB27 (Thermus thermophilus HB27); test: condition: 0.036 μmol of ComZ and 0.027 μmol of PilA1 loaded; SEC; HiLoad 16/600 Superdex 200 PG, 1 ml/min, 25 mM Tris-HCl pH 8.0, 200 mM NaCl, 5% glycerol; proteins incubated together at 4°C for 30 min before the run; each protein also run alone; peaks checked by SDS-PAGE; both purified
[4] = biological target: T1, ComZ (residues 31 to 554), Thermus thermophilus HB27 (Thermus thermophilus HB27); test: condition: 3 mg of ComZ and 2 mg of each pilin loaded; pull-down; reverse affinity tag assay on a HisTrap HP (Ni) column holding His-tagged ComZ; ComZ, PilA2 and PilA3 incubated together in 25 mM Tris-HCl pH 8.0, 200 mM NaCl, 5% glycerol at 4°C; eluted proteins examined by SDS-PAGE; both purified

B1: ComZ (residues 31 to 554), Thermus thermophilus HB27 (domain or fragment, UniProt Q8KPZ1 31-554)
chain: T1 sequence
binding [1]: no binding | binding [2]: no binding (tested: 3 mg of ComZ and 2 mg of PilA3 loaded)

B2: PilA1 soluble domain (residues 30 to 156), Thermus thermophilus HB27 (domain or fragment, UniProt Q72JC4 30-156)
chain: SPNRLALDQAARSLATQVTRARLEAIRRNAFVGLQVFTEGAGGYLLFVDQNANRRYDPGEEFGATHFGQGNWARVRLDPEKSALGNMPLLFDPRGIPAKPITATLVLTSGGATRKVVISQQGRARLE
binding [3]: no binding

B3: PilA3 soluble domain (residues 33 to 233), Thermus thermophilus HB27 (domain or fragment, UniProt Q72JC2 33-233, looked up)
chain: T2 sequence
notes: Synthetic gene (GeneArt), codon-optimised for E. coli, in pET-22b (BamHI/XhoI); source: E. coli Lemo21(DE3), purified (StrepTrap HP, SEC); not shown: Strep-tag II, C-terminal, kept
binding [4]: no binding
